# Reference: article doi:10.1101/2021.01.25.428116
# These are yes or no findings as the source states them, for the method shown. Binding seen in cells or lysates may run through a third protein. Some binding calls cover weakened binding; strength is not graded here. Sequences can lack the tags named with a protein.
# T1: PIN2-YFP (Arabidopsis thaliana PIN-FORMED 2, C-terminally tagged with YFP), expressed in HEK293T cells (Arabidopsis thaliana) (UniProt Q9LU77)
# T1 sequence: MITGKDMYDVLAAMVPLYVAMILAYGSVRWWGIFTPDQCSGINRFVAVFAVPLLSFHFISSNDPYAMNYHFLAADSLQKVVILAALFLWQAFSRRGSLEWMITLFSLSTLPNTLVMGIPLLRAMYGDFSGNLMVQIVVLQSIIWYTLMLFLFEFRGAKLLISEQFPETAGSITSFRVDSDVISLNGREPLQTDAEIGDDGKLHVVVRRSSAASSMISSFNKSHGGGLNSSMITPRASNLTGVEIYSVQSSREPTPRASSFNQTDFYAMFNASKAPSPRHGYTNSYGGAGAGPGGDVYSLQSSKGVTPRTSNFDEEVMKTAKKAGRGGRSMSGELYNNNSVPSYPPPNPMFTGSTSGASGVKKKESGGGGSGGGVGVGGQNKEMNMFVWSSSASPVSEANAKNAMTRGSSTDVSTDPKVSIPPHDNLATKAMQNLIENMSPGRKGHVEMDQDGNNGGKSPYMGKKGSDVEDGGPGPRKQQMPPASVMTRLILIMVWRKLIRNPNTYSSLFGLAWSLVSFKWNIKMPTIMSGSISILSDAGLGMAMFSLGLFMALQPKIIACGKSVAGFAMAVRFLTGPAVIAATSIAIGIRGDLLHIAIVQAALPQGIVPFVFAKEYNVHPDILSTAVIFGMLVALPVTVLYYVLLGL
# T2: PIN2-YFP (Pro35S:PIN2-YFP), expressed in Nicotiana benthamiana leaf epidermal cells (Arabidopsis thaliana) (UniProt Q9LU77)
# T2 sequence: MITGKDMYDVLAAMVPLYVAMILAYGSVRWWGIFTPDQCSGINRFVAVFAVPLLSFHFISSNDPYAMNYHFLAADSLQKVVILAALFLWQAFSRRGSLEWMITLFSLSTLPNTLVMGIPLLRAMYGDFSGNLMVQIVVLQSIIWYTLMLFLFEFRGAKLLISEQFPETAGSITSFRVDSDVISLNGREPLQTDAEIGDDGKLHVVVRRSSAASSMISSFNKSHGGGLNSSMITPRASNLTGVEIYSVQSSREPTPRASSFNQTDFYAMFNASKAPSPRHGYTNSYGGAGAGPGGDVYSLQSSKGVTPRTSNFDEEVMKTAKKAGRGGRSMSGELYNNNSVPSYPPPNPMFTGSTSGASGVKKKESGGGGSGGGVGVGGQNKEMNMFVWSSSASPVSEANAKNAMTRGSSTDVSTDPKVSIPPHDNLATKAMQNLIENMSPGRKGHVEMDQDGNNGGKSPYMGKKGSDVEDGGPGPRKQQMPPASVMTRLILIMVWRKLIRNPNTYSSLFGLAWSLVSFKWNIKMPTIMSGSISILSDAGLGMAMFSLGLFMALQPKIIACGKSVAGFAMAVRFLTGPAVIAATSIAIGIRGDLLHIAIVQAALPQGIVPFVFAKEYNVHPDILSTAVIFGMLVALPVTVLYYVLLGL
# Tests used:
# [1] = biological target: T1, PIN2-YFP (Arabidopsis thaliana PIN-FORMED 2, C-terminally tagged with YFP), expressed in HEK293T cells (Arabidopsis thaliana); experiment: FRET or BRET
# [2] = biological target: T2, PIN2-YFP (Pro35S:PIN2-YFP), expressed in Nicotiana benthamiana leaf epidermal cells (Arabidopsis thaliana); experiment: FRET or BRET
binder,measurement,setting,value
"ABCB4-CFP (Arabidopsis thaliana ATP-binding cassette B4, C-terminally tagged with CFP), expressed in HEK293T cells (protein, UniProt O80725 1-1286) MASESGLNGDPNILEEVSETKRDKEEEEEVKKTEKKDEEHEKTKTVPFYKLFAFADSFDFLLMILGTLGSIGNGLGFPLMTLLFGDLIDAFGENQTNTTDKVSKVALKFVWLGIGTFAAAFLQLSGWMISGERQAARIRSLYLKTILRQDIAFFDIDTNTGEVVGRMSGDTVLIQDAMGEKVGKAIQLLATFVGGFVIAFVRGWLLTLVMLSSIPLLVMAGALLAIVIAKTASRGQTAYAKAATVVEQTIGSIRTVASFTGEKQAISNYNKHLVTAYKAGVIEGGSTGLGLGTLFLVVFCSYALAVWYGGKLILDKGYTGGQVLNIIIAVLTGSMSLGQTSPCLSAFAAGQAAAYKMFETIERRPNIDSYSTNGKVLDDIKGDIELKDVYFTYPARPDEQIFRGFSLFISSGTTVALVGQSGSGKSTVVSLIERFYDPQAGDVLIDGINLKEFQLKWIRSKIGLVSQEPVLFTASIKDNIAYGKEDATTEEIKAAAELANASKFVDKLPQGLDTMVGEHGTQLSGGQKQRIAVARAILKDPRILLLDEATSALDAESERVVQEALDRIMVNRTTVVVAHRLSTVRNADMIAVIHQGKIVEKGSHTELLKDPEGAYSQLIRLQEEKKSDENAAEEQKMSSIESFKQSSLRKSSLGRSLSKGGSSRGNSSRHSFNMFGFPAGIDGNVVQDQEEDDTTQPKTEPKKVSIFRIAALNKPEIPVLILGSISAAANGVILPIFGILISSVIKAFFQPPKKLKEDTSFWAIIFMVLGFASIIAYPAQTFFFAIAGCKLVQRIRSMCFEKVVHMEVGWFDEPENSSGTIGARLSADAATIRGLVGDSLAQTVQNLSSILAGLIIAFLACWQLAFVVLAMLPLIALNGFLYMKFMKGFSADAKKMYGEASQVANDAVGSIRTVASFCAEDKVMNMYSKKCEGPMKNGIRQGIVSGIGFGFSFFVLFSSYAASFYVGARLVDDGKTTFDSVFRVFFALTMAAMAISQSSSLSPDSSKADVAAASIFAIMDRESKIDPSVESGRVLDNVKGDIELRHVSFKYPARPDVQIFQDLCLSIRAGKTVALVGESGSGKSTVIALLQRFYDPDSGEITLDGVEIKSLRLKWLRQQTGLVSQEPILFNETIRANIAYGKGGDASESEIVSSAELSNAHGFISGLQQGYDTMVGERGIQLSGGQKQRVAIARAIVKDPKVLLLDEATSALDAESERVVQDALDRVMVNRTTIVVAHRLSTIKNADVIAVVKNGVIVEKGKHDTLINIKDGVYASLVQLHLTAAS",binding,[1],binds
"ABCB4-CFP (Pro35S:ABCB4-CFP), expressed in Nicotiana benthamiana leaf epidermal cells (protein, UniProt O80725 1-1286) MASESGLNGDPNILEEVSETKRDKEEEEEVKKTEKKDEEHEKTKTVPFYKLFAFADSFDFLLMILGTLGSIGNGLGFPLMTLLFGDLIDAFGENQTNTTDKVSKVALKFVWLGIGTFAAAFLQLSGWMISGERQAARIRSLYLKTILRQDIAFFDIDTNTGEVVGRMSGDTVLIQDAMGEKVGKAIQLLATFVGGFVIAFVRGWLLTLVMLSSIPLLVMAGALLAIVIAKTASRGQTAYAKAATVVEQTIGSIRTVASFTGEKQAISNYNKHLVTAYKAGVIEGGSTGLGLGTLFLVVFCSYALAVWYGGKLILDKGYTGGQVLNIIIAVLTGSMSLGQTSPCLSAFAAGQAAAYKMFETIERRPNIDSYSTNGKVLDDIKGDIELKDVYFTYPARPDEQIFRGFSLFISSGTTVALVGQSGSGKSTVVSLIERFYDPQAGDVLIDGINLKEFQLKWIRSKIGLVSQEPVLFTASIKDNIAYGKEDATTEEIKAAAELANASKFVDKLPQGLDTMVGEHGTQLSGGQKQRIAVARAILKDPRILLLDEATSALDAESERVVQEALDRIMVNRTTVVVAHRLSTVRNADMIAVIHQGKIVEKGSHTELLKDPEGAYSQLIRLQEEKKSDENAAEEQKMSSIESFKQSSLRKSSLGRSLSKGGSSRGNSSRHSFNMFGFPAGIDGNVVQDQEEDDTTQPKTEPKKVSIFRIAALNKPEIPVLILGSISAAANGVILPIFGILISSVIKAFFQPPKKLKEDTSFWAIIFMVLGFASIIAYPAQTFFFAIAGCKLVQRIRSMCFEKVVHMEVGWFDEPENSSGTIGARLSADAATIRGLVGDSLAQTVQNLSSILAGLIIAFLACWQLAFVVLAMLPLIALNGFLYMKFMKGFSADAKKMYGEASQVANDAVGSIRTVASFCAEDKVMNMYSKKCEGPMKNGIRQGIVSGIGFGFSFFVLFSSYAASFYVGARLVDDGKTTFDSVFRVFFALTMAAMAISQSSSLSPDSSKADVAAASIFAIMDRESKIDPSVESGRVLDNVKGDIELRHVSFKYPARPDVQIFQDLCLSIRAGKTVALVGESGSGKSTVIALLQRFYDPDSGEITLDGVEIKSLRLKWLRQQTGLVSQEPILFNETIRANIAYGKGGDASESEIVSSAELSNAHGFISGLQQGYDTMVGERGIQLSGGQKQRVAIARAIVKDPKVLLLDEATSALDAESERVVQDALDRVMVNRTTIVVAHRLSTIKNADVIAVVKNGVIVEKGKHDTLINIKDGVYASLVQLHLTAAS",binding,[2],binds
